Experimental data taken from PubChem BioAssay AID540276 (National Center for Advancing Translational Sciences (NCATS), 2011).
Screen size: about 300,000 compounds; about 5,400 (1.8%) were called active. Inconclusive results, whose numbers are uncertain, are shown with a selection of clear calls. Calls come from the whole dose curve; tested in HEK293 cells. A potency beside an inconclusive call is a rough fit, not a confirmed value.

Test: qHTS for inhibitors of binding or entry into cells for Marburg Virus
Details: Marburg virus pseudotyped entry inhibition, cell reporter; activity change, negative = inhibition: at 37.8 µM (top of the series) unless noted
% is set by controls: 0 for no effect and ±100 for the full control effect; potency is the fitted concentration of half-maximal effect.

Q: With `CCN1CCc2c(sc(NC(=O)Nc3ccc(Cl)c(Cl)c3)c2C(N)=O)C1` as the molecule, how does the Potency read?
A: The Potency was inconclusive: 29.1 µM [inhibitor, single point].

Q: Which “activity change, negative = inhibition” value does the source give for `Cc1ccc(-c2nc(S(=O)(=O)c3ccccc3)c(SCC(=O)NCC3CCCO3)o2)cc1` (stereo unspecified) here?
A: Its value is inactive: -10.5% [at 46.1 µM].

Q: For `O=C(O)Cc1sc(Nc2ccc(C(=O)O)cc2)nc1-c1ccccc1`, which Potency is on record?
A: The Potency was inconclusive: 8.91 µM [activator, partial curve, poor fit].

Q: For `Cc1ccc(-c2nc(C3CCN(S(C)(=O)=O)CC3)no2)cc1`, which Potency is on record?
A: The Potency was inconclusive: 6.31 µM [activator, single point].

Q: For `C=C(C)C1CCC(C)=C1CC(C)(C)/C=N\n1cnnc1` (stereo unspecified), which Potency is on record?
A: The Potency was inconclusive: 16.4 µM [inhibitor, single point].

Q: Which “activity change, negative = inhibition” value does the source give for `CCCC1CCC(C(=O)Nn2cnc3ccccc3c2=O)CC1` (stereo unspecified) here?
A: Its value is inactive: -0.358%.

Q: For `COC(=O)NNC(=O)CCCOc1ccc(Cl)cc1Cl`, which “activity change, negative = inhibition” value is on record?
A: The value was inactive: 0.0223%.

Q: With `CC(C)=CCCC(C)=CC=CC1=CC2(C)CC1(C)C(C=C(C)CCC=C(C)C)CC2=O` (stereo unspecified) as the molecule, how does the Potency read?
A: The Potency was inconclusive: 3.76 µM [inhibitor, partial curve, poor fit].

Q: For `COc1ccccc1C(=O)O/N=C(/C)c1ccc(N2C(=O)C3CCCCC3C2=O)cc1` (stereo unspecified), which Potency is on record?
A: Its Potency is inconclusive: 3.55 µM [inhibitor, single point].

Q: Which “activity change, negative = inhibition” value does the source give for `COc1ccc(C(=O)C[n+]2ccc(N(C)C)cc2)cc1` here?
A: Its value is inactive: 1.9% [at 46.1 µM].

Q: Which “activity change, negative = inhibition” value does the source give for `O=C(c1cccs1)c1cn(CCOc2ccc(F)cc2)c2ccccc12` here?
A: The value was inactive: -14.9% [at 46.1 µM].

Q: Which Potency does the source give for `COc1ccc(-c2csc(=Nc3ccccc3)n2CCO)cc1` here?
A: Its Potency is inconclusive: 35.5 µM [inhibitor, single point].

Q: For `CC1CC(C)CN(C(=O)c2ccc3c(c2)OCCO3)C1` (stereo unspecified), which “activity change, negative = inhibition” value is on record?
A: The value was inactive: -27%.

Q: For `CC1CCN(S(=O)(=O)c2cnc(Cl)c(Br)c2)CC1`, which “activity change, negative = inhibition” value is on record?
A: Its value is inactive: -5.04%.

Q: With `CN(Cc1ccc(Cl)cc1)C(=O)c1cc(S(=O)(=O)N2CCOCC2)ccc1N1CCCC1` as the molecule, how does the “activity change, negative = inhibition” value read?
A: Its value is inactive: 11.5%.

Q: With `COc1ccccc1N1CCN(CCCNc2cc(=O)n(C)c(=O)n2C)CC1` as the molecule, how does the Potency read?
A: The Potency was inconclusive: 0.112 µM [inhibitor, full curve].

Q: With `O=C(CNC(=O)C1CCCCC1)Nc1ccc(Cl)cc1` as the molecule, how does the “activity change, negative = inhibition” value read?
A: Its value is inactive: 11.3%.

Q: With `CC(=O)c1ccc(OCCCC(=O)N(CCC2=CCCCC2)c2c(N)n(Cc3ccccc3)c(=O)[nH]c2=O)cc1` as the molecule, how does the Potency read?
A: The Potency was inconclusive: 35.5 µM [inhibitor, single point].

Q: For `O=C(NCC(c1ccco1)N1CCN(c2ccc(F)cc2)CC1)c1cccs1` (stereo unspecified), which Potency is on record?
A: The Potency was inconclusive: 10 µM [inhibitor, partial curve, poor fit].

Q: With `CN(C)Cc1ccccc1C1(O)c2ccccc2CSc2ccccc21` (stereo unspecified) as the molecule, how does the Potency read?
A: Its Potency is inconclusive: 15.8 µM [inhibitor, single point].

Q: Which “activity change, negative = inhibition” value does the source give for `COc1cc(-c2nnc(NC(=O)CCS(=O)(=O)c3ccccc3)o2)cc(OC)c1OC` here?
A: Its value is inactive: -26.8%.
